Assay results taken from PubChem BioAssay AID590 (National Center for Advancing Translational Sciences (NCATS), 2007).
Among all 59,000 compounds or so, about 6,500 (11%) were called active. Inconclusive results, whose numbers are uncertain, are shown with a selection of clear calls. No stated cut-off is given here; in the data, active means max dye-equivalent concentration above about 10 nM; inconclusive means mostly about 1.1 nM to 9.6 nM; inactive means weaker than that.

Experiment: qHTS Assay for Spectroscopic Profiling in A350 Spectral Region
Conditions: Compound autofluorescence, 340/450 nm, Alexa 350 dye-equivalents; active compounds read high
From the text: NIH Molecular Libraries Screening Centers Network [MLSCN]
NIH Chemical Genomics Center [NCGC]
Occasionally, the artifactual effect may originate from the compounds own spectral or other biophysical properties which generally tend to track its assay concentration. Pre-screening/profiling the library with respect to the compounds spectral properties should help one exclude false positives early on. While the most informative fluorescent profiling data set is obtained by performing a full excitation and emission scan of each well by using a monochromator-based plate reader, such an approach is practical only on a very limited scale as scanning each well requires long time. An alternative approach, applied here, is to perform plate reader scans using selected excitation and emission wavelength pairs to generate a multidimensional relational database that correlates compound concentration and the respective relative fluorescence intensity at a given wavelength set. A standard curve of Alexa 350 (A 350) present on each plate as six-point concentration series, was used to compute a normalized fluorescence response, termed dye-equivalent concentration, for each compound at each concentration.
NCGC Assay Protocol Summary:
100 mM Tris buffer, pH 8.0
The wells in columns 1 through 4 of a Kalypsys polypropylene 1536-well compound plate were filled with standard solutions of fluorophore corresponding to the spectral region of interest. Solutions of A 350 were placed in the following wells: I1, J1: 3 mM, I2, J2: 300 uM, I3, J3: 30 uM, I4, J4: zero (DMSO), K1, L1: 3 uM, K2, L2: […], K3, L3: 300 nM, K4, L4: zero (DMSO).
Six uL of buffer were dispensed to 1536-well Greiner black plates. Compounds and dye standards (23 nL) were transferred via Kalypsys PinTool. The plates were incubated for 15 min at room temperature, and then read on ViewLux (Perkin-Elmer) High-throughput CCD imager using 340 nm and 450 nm excitation and emission filter set.
Keywords: NIH Roadmap, MLSCN, MLI, MLSMR, qHTS, NCGC, A350, A-350, Fluorescent Profiling.
With `CCN(CCCNC(=O)c1ccc(N2CCCC2=O)cc1)c1cccc(C)c1` the max dye-equivalent concentration was inconclusive: 1.3 nM.
With `O=C(NCc1ccco1)c1cccnc1-c1nc2ccccc2s1` the max dye-equivalent concentration was inconclusive: 5.2 nM.
With `COc1ccc(/C=C(\C#N)C(N)=O)c(OC)c1` the max dye-equivalent concentration was inconclusive: 1.5 nM.
With `CCCN1Cc2cccc(C(=O)Nc3cc(OC)cc(OC)c3)c2C1=O` the max dye-equivalent concentration was inconclusive: 4.4 nM.
For `COC(=O)c1ccc(COc2cc(O)c3c(c2)OC(C)(C)CC3=O)cc1`, the max dye-equivalent concentration was “inactive”.
With `Nc1cc(S(=O)(=O)C(F)(F)F)ccc1C(=O)O` the max dye-equivalent concentration was inconclusive: 7.6 nM.
For `Cc1ccc(OCC(O)Cn2c(=N)n(CCN3CCCCC3)c3ccccc32)cc1` (stereo not given), the max dye-equivalent concentration was inconclusive: 1.5 nM.
With `CC1(C)CC(=O)C2=C(C1)Oc1ncn(Cc3ccco3)c(=N)c1C2c1ccccc1` (stereo not given) the max dye-equivalent concentration was inconclusive: 1.1 nM.
In the case of `C=CCNc1nc2c3ccccc3n(C(C)=O)c2s1`, the max dye-equivalent concentration is reported as inconclusive: 1.6 nM.
With `O=C1c2ccccc2NC(c2ccc3c(c2)OCO3)N1O` (stereo not given) the max dye-equivalent concentration was inconclusive: 5.6 nM.
For `COc1cccc(NS(=O)(=O)c2ccc(S(=O)(=O)N3CCOCC3)cc2)c1`, the max dye-equivalent concentration was inconclusive: 1.3 nM.
In the case of `CCOc1ccccc1-n1c(SCC(=O)NC2CCCC2)nnc1-c1ccoc1C`, the max dye-equivalent concentration is reported as inconclusive: 1.3 nM.
In the case of `CN1CCN(C(=O)c2ccccc2NC(=O)CCN2C(=O)c3ccccc3C2=O)CC1`, the max dye-equivalent concentration is reported as inconclusive: 1.6 nM.
With `C=N[C@H](C(=O)N[C@@H]1C(=O)N2[C@@H]1SC(C)(C)[C@@H]2C(=O)O)c1ccccc1` the max dye-equivalent concentration was active: 60 nM.
In the case of `CCOC(=O)c1cc2occc2n1CC(=O)NC1CCC(C)CC1` (stereo not given), the max dye-equivalent concentration is reported as inconclusive: 1.1 nM.
With `Cc1sc2c(c1C)CN(Cc1ccco1)CN2C(=O)c1ccccc1` the max dye-equivalent concentration was inconclusive: 4 nM.
With `O=C(O)c1cccc(N2CCCC2=O)c1` the max dye-equivalent concentration was “inactive”.
With `CCOc1ccccc1NC(=O)Cn1c(=O)n(CCC(=O)NC2CCCC2)c(=O)c2ccccc21` the max dye-equivalent concentration was “inactive”.
In the case of `Cc1ccc(-c2cc(-c3ccc(F)cc3)nc(N)c2C#N)o1`, the max dye-equivalent concentration is reported as inconclusive: 1.4 nM.
With `O=C(N[C@@H](Cc1ccccc1)C(=O)CCl)OCc1ccccc1` the max dye-equivalent concentration was inconclusive: 3.5 nM.
With `O=C(NCc1ccc(F)cc1)C1CCN(S(=O)(=O)N2CCCCC2)CC1` the max dye-equivalent concentration was inconclusive: 8 nM.
In the case of `Cc1cc2ccccc2c(=O)n1CC(=O)NCC1COc2ccccc2O1` (stereo not given), the max dye-equivalent concentration is reported as inconclusive: 1.6 nM.
For `CCNc1ncc2nc(-c3ccccc3)c(=O)n(CCOC)c2n1`, the max dye-equivalent concentration was active: 840 nM.
For `CCOC(=O)Cc1cn2c(=O)cc(CSCC(=O)Nc3ccc(C)c(C)c3)nc2s1`, the max dye-equivalent concentration was inconclusive: 3.3 nM.
In the case of `CC(C)CN1C(=O)NC(NC(=O)c2cccnc2)(C(F)(F)F)C1=O` (stereo not given), the max dye-equivalent concentration is reported as inconclusive: 2.4 nM.
With `Cn1c(=O)c2[nH]c(CNCc3ccccc3Cl)nc2n(C)c1=O` the max dye-equivalent concentration was inconclusive: 2.7 nM.
In the case of `CCCc1n[nH]c(=O)[nH]1`, the max dye-equivalent concentration is reported as inconclusive: 1.5 nM.
With `O=C(O)Cc1ccc2[nH]c3ccc(CC(=O)O)cc3c2c1` the max dye-equivalent concentration was inconclusive: 4 nM.
For `CN(C)CCN1C(=O)C(O)=C(C(=O)c2ccco2)C1c1ccccc1F` (stereo not given), the max dye-equivalent concentration was inconclusive: 1.3 nM.
With `COc1ncc2nc(C)c(=O)n(CCC#N)c2n1` the max dye-equivalent concentration was “inactive”.
With `CCOC(=O)C1=C(C)NC(=O)NC1c1ccc(OC)c(CN2CCOCC2)c1` (stereo not given) the max dye-equivalent concentration was “inactive”.
In the case of `COc1cccc2c(=O)c3c(cnn3C)n(C)c12`, the max dye-equivalent concentration is reported as active: 8100 nM.
With `CCOC(=O)c1cnc(SCC(=O)Nc2nc(C)c(C)s2)nc1N` the max dye-equivalent concentration was “inactive”.
With `C=CCNc1nc(N)c(C(=O)c2ccc3c(c2)OCO3)s1` the max dye-equivalent concentration was inconclusive: 4.4 nM.
With `COC(=O)c1[nH]c2cc(OC)ccc2c1NC(=O)CN1CCOCC1` the max dye-equivalent concentration was active: 16 nM.
For `CCCCC(=O)Nc1ccc(NC(=O)c2cc(OC)c(OC)c(OC)c2)cn1`, the max dye-equivalent concentration was inconclusive: 3.2 nM.
In the case of `Cc1cn([C@H]2C=C[C@H](CO)O2)c(=O)[nH]c1=O`, the max dye-equivalent concentration is reported as “inactive”.
In the case of `Cc1csc(NC(=O)CSc2nc3sc(C)c(C)c3c(=O)[nH]2)n1`, the max dye-equivalent concentration is reported as inconclusive: 1.8 nM.
For `c1ccc(SCc2nc3ccccc3[nH]2)nc1`, the max dye-equivalent concentration was inconclusive: 3 nM.
With `O=c1c2c3nc4ccccc4nc3n(-c3ccc4c(c3)OCCO4)c2ncn1C1CCCC1` the max dye-equivalent concentration was inconclusive: 6.8 nM.
For `COc1ccc(-c2nnc(SCC(=O)c3ccco3)n2-c2ccccc2)cc1`, the max dye-equivalent concentration was inconclusive: 1.8 nM.
In the case of `CC(=O)NCCN=C(C)c1sc2ccccc2c1O`, the max dye-equivalent concentration is reported as active: 12 nM.
In the case of `Nc1ccc(C23CC4CC(CC(O)(C4)C2)C3)cc1`, the max dye-equivalent concentration is reported as inconclusive: 1.9 nM.
For `COCCCNS(=O)(=O)c1ccc2c3c(cccc13)C(=O)S2`, the max dye-equivalent concentration was active: 68 nM.
For `CCC(c1nnnn1Cc1ccccc1)N(Cc1cc2cc(OC)ccc2[nH]c1=O)CC1CCCO1` (stereo not given), the max dye-equivalent concentration was active: 32 nM.
